Laboratory results as given in article PMC9746826.
Results are given in words; binding and its absence hold for the method and conditions named. Binding seen in cells or lysates may run through a third protein. Some entries that bind do so weakly or less than the wild type.

By UniProt entry, the sequences of proteins in these tests, tags left out.
UniProt O88444: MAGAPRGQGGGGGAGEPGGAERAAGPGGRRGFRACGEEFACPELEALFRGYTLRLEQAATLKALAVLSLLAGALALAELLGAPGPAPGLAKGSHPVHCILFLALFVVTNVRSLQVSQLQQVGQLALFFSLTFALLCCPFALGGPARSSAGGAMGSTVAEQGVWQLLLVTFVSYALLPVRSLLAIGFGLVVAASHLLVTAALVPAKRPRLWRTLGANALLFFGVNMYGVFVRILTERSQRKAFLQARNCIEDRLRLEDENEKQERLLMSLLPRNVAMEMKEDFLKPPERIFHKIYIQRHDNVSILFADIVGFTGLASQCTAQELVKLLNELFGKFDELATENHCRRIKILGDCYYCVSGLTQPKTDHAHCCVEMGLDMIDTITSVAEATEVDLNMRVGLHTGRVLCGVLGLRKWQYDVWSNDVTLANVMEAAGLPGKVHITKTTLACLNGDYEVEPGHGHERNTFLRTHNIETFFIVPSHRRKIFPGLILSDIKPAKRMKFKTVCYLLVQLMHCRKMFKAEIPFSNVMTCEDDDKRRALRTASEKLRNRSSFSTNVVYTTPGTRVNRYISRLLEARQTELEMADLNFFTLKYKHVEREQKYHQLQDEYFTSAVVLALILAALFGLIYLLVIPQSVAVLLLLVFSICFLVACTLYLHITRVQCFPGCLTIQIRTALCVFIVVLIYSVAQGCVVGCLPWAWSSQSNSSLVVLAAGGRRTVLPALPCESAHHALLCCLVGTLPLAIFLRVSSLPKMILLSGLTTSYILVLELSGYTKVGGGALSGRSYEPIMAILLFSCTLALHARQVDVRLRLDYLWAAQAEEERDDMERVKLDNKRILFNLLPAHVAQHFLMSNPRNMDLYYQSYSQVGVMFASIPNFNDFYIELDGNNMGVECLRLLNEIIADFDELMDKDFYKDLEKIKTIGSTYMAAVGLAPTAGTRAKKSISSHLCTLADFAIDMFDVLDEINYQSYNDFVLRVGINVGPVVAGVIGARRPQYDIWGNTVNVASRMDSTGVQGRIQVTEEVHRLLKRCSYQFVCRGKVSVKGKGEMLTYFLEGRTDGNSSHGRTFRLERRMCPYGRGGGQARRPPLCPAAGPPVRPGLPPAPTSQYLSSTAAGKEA
UniProt Q01815: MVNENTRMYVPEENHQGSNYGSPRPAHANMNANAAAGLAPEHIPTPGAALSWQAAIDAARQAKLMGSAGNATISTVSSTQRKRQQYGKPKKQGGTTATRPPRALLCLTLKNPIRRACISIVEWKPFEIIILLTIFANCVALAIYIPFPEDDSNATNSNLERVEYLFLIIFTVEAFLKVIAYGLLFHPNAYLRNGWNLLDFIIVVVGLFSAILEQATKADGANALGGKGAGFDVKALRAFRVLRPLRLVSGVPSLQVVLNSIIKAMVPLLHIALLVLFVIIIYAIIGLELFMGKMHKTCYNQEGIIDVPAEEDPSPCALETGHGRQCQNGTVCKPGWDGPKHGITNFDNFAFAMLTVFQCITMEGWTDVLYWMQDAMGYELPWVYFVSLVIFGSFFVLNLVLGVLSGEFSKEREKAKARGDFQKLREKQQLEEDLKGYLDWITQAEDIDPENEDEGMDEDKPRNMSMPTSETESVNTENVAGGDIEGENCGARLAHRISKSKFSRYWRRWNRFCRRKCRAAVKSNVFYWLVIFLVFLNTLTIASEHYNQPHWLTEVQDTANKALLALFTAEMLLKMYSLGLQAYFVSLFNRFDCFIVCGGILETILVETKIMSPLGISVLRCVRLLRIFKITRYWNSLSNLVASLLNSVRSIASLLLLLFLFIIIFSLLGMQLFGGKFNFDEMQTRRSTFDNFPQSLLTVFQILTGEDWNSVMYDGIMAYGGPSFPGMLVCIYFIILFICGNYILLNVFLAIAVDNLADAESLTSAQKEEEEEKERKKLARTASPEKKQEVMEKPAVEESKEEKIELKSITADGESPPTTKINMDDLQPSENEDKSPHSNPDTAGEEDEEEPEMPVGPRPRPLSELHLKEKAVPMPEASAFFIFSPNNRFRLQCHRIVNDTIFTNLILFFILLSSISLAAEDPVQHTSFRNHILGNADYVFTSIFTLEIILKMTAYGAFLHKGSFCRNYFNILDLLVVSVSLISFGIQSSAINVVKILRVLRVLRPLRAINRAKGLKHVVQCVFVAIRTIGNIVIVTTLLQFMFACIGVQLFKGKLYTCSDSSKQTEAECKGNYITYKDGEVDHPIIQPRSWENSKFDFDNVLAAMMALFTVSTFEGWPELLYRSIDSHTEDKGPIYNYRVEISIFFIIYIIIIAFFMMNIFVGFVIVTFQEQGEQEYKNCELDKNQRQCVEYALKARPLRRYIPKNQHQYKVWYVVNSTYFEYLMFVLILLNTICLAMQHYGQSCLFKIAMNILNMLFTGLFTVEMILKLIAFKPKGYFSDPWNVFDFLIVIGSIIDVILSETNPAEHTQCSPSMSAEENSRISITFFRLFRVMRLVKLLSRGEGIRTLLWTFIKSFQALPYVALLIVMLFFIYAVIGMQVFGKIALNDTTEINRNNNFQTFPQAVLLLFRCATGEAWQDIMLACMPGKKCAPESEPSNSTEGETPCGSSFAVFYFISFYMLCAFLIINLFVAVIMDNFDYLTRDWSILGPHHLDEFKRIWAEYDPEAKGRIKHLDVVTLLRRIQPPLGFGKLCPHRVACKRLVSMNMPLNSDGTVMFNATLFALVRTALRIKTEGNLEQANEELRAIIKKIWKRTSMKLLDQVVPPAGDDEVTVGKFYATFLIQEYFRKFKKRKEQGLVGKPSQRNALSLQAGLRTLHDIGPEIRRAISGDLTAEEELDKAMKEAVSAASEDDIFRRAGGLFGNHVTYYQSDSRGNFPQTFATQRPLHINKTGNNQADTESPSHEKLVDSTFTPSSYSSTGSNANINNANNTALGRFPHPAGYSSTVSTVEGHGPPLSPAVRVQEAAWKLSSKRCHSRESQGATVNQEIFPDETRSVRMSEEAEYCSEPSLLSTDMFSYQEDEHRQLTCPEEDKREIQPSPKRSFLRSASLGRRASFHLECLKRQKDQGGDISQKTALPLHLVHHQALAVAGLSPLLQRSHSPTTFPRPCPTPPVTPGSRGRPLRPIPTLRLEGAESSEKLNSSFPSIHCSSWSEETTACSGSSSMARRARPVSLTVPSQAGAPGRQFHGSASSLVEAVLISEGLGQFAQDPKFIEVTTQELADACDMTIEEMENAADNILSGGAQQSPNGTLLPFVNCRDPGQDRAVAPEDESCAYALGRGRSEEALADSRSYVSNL
UniProt P34971: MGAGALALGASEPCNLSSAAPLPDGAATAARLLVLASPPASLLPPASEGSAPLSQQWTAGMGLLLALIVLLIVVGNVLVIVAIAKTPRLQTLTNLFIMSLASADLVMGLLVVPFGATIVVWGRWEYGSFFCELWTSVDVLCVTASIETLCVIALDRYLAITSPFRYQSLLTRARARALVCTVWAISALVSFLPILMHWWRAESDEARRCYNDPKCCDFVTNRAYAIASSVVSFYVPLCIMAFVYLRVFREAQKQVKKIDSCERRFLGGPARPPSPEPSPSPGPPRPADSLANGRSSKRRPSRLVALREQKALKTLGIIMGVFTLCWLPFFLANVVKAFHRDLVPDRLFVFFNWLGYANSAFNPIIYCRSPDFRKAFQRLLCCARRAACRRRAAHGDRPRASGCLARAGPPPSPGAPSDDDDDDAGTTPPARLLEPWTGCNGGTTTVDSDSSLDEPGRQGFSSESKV
UniProt P18762: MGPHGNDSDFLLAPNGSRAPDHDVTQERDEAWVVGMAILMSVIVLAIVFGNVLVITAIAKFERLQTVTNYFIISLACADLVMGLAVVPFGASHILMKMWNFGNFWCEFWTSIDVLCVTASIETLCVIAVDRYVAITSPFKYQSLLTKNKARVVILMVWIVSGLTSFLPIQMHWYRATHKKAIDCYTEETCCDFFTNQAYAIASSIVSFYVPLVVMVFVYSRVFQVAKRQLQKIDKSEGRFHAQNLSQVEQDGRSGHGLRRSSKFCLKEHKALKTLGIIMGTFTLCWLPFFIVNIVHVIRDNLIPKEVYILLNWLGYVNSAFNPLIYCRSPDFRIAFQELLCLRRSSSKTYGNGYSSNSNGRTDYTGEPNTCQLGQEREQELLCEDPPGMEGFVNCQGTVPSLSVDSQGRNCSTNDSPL

B1: hyperpolarization-activated cyclic nucleotide-gated 4 (HCN4) channel (protein, UniProt O70507 1-1201)
chain: MDKLPPSMRKRLYSLPQQVGAKAWIMDEEEDGEEEGAGGRQDPSRRSIRLRPLPSPSPSVAAGCSESRGAALGATESEGPGRSAGKSSTNGDCRRFRGSLASLGSRGGGSGGAGGGSSLGHLHDSAEERRLIAAEGDASPGEDRTPPGLATEPERPATAAQPAASPPPQQPPQPASASCEQPSADTAIKVEGGAAASDQILPEAEVRLGQSGFMQRQFGAMLQPGVNKFSLRMFGSQKAVEREQERVKSAGFWIIHPYSDFRFYWDLTMLLLMVGNLIIIPVGITFFKDENTTPWIVFNVVSDTFFLIDLVLNFRTGIVVEDNTEIILDPQRIKMKYLKSWFVVDFISSIPVDYIFLIVETRIDSEVYKTARALRIVRFTKILSLLRLLRLSRLIRYIHQWEEIFHMTYDLASAVVRIVNLIGMMLLLCHWDGCLQFLVPMLQDFPHDCWVSINGMVNNSWGKQYSYALFKAMSHMLCIGYGRQAPVGMSDVWLTMLSMIVGATCYAMFIGHATALIQSLDSSRRQYQEKYKQVEQYMSFHKLPPDTRQRIHDYYEHRYQGKMFDEESILGELSEPLREEIINFNCRKLVASMPLFANADPNFVTSMLTKLRFEVFQPGDYIIREGTIGKKMYFIQHGVVSVLTKGNKETKLADGSYFGEICLLTRGRRTASVRADTYCRLYSLSVDNFNEVLEEYPMMRRAFETVALDRLDRIGKKNSILLHKVQHDLNSGVFNYQENEIIQQIVRHDREMAHCAHRVQAAASATPTPTPVIWTPLIQAPLQAAAATTSVAIALTHHPRLPAAIFRPPPGPGLGNLGAGQTPRHPRRLQSLIPSALGSASPASSPSQVDTPSSSSFHIQQLAGFSAPPGLSPLLPSSSSSPPPGACGSPPAPTPSTSTAAAASTTGFGHFHKALGGSLSSSDSPLLTPLQPGARSPQAAQPPPPLPGARGGLGLLEHFLPPPPSSRSPSSSPGQLGQPPGELSLGLAAGPSSTPETPPRPERPSFMAGASGGASPVAFTPRGGLSPPGHSPGPPRTFPSAPPRASGSHGSLLLPPASSPPPPQVPQRRGTPPLTPGRLTQDLKLISASQPALPQDGAQTLRRASPHSSGESVAAFSLYPRAGGGSGSSGGLGPPGRPYGAIPGQHVTLPRKTSSGSLPPPLSLFGARAASSGGPPLTTAAPQREPGARSEPVRSKLPSNL
B2: Caveolin-3 (protein, UniProt P51637 1-151)
chain: MMTEEHTDLEARIIKDIHCKEIDLVNRDPKNINEDIVKVDFEDVIAEPEGTYSFDGVWKVSFTTFTVSKYWCYRLLSTLLGVPLALLWGFLFACISFCHIWAVVPCIKSYLIEIQCISHIYSLCIRTFCNPLFAALGQVCSNIKVVLRREG

target: Adenylyl cyclase isoform 1 (mouse (endogenous in SAN cells)) (UniProt O88444); assay: proximity ligation; Duolink In Situ PLA kit on isolated mouse SAN cells; puncta per unit area against negative controls where only 1 antibody was used; shows whether the 2 proteins are ≤ 40 nm apart

| Molecule | binding |
| --- | --- |
| voltage-gated Ca2+ channel (Cav1.2) (from UniProt Q01815 1-2139) | binds |
| β1-adrenergic receptor (from UniProt P34971 1-466) | binds |
| β2-adrenergic receptor (from UniProt P18762 1-418) | binds |
| B1 | binds |
| B2 | binds |
